From the supplement of paper PMC11732987, “Enantioselective OTUD7B fragment discovery through chemoproteomics screening and high-throughput optimisation” (Communications Chemistry, 2025)
The other results are listed elsewhere or left out. The data scatter; read single values as rough.

Sequences of proteins named here, by UniProt entry; tags and fusion partners are left off. A change or cut given only in a name is not applied to a line headed by its entry. Residues count along the entry.
UniProt Q9BRT8: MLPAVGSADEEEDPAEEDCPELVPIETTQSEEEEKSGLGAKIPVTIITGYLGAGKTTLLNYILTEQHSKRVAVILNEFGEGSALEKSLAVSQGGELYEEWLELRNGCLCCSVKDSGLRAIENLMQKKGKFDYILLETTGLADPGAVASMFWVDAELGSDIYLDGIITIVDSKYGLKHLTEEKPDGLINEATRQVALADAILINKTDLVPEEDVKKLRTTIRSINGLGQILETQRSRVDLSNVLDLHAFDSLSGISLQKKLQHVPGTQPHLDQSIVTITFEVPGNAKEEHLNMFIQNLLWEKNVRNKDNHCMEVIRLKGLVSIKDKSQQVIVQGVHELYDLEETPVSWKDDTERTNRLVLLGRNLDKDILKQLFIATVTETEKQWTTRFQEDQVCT
UniProt Q6P5X5: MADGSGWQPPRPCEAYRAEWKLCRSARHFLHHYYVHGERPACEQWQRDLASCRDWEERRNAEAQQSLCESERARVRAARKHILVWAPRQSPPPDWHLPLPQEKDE
UniProt Q5PSV4: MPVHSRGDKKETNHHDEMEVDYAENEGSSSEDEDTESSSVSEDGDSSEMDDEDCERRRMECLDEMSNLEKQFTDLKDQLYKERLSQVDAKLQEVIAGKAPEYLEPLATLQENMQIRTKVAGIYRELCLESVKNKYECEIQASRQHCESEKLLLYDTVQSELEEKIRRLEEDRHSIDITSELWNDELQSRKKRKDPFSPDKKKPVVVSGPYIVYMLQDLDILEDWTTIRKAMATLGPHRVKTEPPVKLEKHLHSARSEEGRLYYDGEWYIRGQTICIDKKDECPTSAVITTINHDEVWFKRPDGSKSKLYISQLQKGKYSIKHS
UniProt Q96GS4, 168-193: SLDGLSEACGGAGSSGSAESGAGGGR
UniProt O60566, whole entry, looked up: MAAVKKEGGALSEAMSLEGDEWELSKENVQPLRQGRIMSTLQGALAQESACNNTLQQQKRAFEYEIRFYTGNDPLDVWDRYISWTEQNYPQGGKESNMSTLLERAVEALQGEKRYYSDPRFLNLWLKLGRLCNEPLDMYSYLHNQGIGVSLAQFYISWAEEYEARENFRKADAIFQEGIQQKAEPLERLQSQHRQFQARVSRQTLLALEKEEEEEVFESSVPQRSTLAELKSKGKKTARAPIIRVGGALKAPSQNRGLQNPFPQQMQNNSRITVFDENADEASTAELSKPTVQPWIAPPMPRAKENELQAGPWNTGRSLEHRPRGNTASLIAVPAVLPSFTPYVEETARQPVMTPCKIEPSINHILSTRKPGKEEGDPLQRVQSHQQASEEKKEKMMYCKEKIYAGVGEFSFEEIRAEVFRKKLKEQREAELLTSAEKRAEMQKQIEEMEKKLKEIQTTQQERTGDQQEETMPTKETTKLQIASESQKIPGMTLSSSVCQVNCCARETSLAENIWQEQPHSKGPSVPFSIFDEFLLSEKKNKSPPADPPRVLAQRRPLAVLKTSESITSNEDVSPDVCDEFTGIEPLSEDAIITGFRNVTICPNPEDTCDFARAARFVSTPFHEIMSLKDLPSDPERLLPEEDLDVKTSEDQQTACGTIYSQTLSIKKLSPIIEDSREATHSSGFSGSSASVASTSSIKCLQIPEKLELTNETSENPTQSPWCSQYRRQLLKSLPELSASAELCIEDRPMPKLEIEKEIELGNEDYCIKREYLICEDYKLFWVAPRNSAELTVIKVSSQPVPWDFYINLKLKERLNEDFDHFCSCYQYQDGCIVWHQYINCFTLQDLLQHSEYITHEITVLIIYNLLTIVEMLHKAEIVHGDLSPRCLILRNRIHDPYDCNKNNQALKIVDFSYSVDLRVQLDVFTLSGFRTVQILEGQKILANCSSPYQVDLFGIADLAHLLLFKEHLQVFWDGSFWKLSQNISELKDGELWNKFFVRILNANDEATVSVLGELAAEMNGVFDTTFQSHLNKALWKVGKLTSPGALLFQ
UniProt Q8NFC6: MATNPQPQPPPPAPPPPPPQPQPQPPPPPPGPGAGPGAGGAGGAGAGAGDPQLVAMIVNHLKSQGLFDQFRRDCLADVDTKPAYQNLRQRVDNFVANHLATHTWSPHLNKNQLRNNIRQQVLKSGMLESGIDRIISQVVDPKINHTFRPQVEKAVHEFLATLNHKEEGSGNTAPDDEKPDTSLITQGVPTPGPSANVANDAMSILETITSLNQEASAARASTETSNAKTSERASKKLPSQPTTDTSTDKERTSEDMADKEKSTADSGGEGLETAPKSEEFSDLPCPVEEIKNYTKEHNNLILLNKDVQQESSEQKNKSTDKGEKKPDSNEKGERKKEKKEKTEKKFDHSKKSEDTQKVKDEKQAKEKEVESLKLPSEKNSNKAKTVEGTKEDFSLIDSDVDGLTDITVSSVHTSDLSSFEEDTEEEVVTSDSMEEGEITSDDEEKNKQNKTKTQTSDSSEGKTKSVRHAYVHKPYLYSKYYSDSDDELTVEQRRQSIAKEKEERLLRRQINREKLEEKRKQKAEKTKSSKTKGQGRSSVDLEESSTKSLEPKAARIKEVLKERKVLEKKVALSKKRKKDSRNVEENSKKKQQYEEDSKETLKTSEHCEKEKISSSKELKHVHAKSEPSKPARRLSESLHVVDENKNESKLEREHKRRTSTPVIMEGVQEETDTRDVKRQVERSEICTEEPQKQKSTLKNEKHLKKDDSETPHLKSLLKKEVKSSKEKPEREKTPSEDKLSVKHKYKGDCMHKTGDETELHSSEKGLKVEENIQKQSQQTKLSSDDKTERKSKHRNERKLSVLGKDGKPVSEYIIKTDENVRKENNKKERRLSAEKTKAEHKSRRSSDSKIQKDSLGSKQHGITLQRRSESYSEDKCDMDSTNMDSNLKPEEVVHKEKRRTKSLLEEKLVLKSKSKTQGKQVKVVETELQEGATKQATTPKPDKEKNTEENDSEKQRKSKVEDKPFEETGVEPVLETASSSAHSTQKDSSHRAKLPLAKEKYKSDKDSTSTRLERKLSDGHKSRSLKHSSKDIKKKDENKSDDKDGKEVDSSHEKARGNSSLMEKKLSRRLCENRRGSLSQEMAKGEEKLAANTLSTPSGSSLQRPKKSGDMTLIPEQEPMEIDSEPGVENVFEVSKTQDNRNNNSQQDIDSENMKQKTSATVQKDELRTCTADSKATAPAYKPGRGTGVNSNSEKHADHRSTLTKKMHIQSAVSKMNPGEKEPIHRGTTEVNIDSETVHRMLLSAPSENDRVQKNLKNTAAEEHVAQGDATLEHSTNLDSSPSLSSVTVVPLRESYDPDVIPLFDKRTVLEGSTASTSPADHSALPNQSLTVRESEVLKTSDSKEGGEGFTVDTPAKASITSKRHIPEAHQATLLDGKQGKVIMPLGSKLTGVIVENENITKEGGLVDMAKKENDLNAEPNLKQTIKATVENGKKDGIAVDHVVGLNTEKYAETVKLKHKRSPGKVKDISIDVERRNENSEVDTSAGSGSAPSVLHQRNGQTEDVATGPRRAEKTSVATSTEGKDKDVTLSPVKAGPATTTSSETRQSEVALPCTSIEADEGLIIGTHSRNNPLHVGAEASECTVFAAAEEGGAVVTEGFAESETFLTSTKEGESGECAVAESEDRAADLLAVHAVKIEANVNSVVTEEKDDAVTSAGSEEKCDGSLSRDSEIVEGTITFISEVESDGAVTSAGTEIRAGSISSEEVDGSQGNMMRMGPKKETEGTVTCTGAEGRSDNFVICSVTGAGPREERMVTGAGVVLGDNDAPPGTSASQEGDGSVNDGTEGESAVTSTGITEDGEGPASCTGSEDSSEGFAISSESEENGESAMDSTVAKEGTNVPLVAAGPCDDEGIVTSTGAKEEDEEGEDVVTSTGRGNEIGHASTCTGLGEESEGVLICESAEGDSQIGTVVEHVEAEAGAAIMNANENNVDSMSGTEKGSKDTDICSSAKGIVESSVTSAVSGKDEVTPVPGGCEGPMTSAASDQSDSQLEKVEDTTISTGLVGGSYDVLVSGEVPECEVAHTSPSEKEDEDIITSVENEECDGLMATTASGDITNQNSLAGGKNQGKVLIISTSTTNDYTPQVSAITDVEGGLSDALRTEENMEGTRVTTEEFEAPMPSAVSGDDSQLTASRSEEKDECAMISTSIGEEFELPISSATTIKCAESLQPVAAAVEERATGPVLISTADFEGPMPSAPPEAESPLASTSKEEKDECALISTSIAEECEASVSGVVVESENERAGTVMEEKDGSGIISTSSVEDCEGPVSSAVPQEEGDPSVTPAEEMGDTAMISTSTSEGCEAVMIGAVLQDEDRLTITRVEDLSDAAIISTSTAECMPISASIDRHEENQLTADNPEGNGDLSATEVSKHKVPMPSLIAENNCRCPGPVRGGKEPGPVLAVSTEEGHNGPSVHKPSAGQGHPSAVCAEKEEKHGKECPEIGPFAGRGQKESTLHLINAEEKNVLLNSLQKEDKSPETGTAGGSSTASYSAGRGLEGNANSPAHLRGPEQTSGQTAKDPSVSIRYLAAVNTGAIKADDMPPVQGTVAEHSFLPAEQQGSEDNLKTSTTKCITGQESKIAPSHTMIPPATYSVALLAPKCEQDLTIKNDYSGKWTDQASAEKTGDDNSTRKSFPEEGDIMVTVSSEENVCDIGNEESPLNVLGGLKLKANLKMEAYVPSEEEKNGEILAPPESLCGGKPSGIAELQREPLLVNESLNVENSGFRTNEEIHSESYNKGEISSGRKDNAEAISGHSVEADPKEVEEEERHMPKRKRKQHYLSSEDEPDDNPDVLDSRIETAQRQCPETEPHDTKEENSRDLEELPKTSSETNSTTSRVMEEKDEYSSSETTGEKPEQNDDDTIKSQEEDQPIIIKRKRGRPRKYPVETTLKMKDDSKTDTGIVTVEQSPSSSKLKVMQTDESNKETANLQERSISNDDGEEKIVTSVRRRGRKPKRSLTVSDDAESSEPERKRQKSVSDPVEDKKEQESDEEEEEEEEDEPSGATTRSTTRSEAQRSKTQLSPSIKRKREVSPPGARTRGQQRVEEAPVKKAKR
UniProt P35219: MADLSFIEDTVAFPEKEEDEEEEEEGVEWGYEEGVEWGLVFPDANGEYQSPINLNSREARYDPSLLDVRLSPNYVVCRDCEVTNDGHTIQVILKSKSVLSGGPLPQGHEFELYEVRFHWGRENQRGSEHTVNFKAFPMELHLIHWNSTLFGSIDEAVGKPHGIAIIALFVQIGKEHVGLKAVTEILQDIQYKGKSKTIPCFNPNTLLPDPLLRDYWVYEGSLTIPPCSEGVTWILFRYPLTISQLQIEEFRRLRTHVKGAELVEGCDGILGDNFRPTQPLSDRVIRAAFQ
UniProt P55212: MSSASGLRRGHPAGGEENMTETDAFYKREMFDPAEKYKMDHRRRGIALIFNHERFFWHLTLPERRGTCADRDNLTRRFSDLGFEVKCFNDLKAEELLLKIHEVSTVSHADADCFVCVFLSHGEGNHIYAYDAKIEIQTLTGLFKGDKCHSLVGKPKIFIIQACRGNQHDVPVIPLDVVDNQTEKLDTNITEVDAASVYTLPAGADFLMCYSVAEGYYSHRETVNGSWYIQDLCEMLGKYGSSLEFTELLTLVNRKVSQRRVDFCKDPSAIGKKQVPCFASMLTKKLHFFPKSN
UniProt Q8N5S9: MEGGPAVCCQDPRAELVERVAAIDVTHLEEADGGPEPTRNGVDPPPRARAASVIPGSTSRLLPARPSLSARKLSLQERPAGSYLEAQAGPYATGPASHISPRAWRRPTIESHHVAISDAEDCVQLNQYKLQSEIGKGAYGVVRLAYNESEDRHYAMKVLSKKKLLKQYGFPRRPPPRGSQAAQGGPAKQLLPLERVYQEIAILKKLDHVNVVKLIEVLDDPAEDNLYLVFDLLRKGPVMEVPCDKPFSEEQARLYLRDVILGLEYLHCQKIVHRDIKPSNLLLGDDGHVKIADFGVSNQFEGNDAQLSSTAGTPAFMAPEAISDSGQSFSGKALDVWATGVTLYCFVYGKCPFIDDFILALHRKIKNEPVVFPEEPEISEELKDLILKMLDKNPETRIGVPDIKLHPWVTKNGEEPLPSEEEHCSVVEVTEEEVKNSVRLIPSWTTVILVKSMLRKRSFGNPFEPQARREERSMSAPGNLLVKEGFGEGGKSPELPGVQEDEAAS
UniProt P35520: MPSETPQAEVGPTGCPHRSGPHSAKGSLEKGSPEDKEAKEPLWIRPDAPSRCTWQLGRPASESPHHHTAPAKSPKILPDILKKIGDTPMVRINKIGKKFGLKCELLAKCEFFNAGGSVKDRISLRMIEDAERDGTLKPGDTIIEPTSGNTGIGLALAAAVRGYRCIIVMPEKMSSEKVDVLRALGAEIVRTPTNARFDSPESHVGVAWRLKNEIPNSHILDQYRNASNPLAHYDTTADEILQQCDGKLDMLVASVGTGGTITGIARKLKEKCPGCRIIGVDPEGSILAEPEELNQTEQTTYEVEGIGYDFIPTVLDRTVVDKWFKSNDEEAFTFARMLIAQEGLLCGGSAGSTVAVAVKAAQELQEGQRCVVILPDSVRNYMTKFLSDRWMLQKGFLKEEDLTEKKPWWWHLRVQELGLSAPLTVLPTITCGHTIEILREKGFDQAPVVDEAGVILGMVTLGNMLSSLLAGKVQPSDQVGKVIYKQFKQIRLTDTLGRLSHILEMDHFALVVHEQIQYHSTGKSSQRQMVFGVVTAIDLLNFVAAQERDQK

What was measured:
[1] = compound: ClCC(=O)N[C@@H]1CCCc2ccccc12; assay: log2 mean competition ratio of IA-DTB cysteine labelling (DMSO/compound) (log2 ratio); higher = stronger cysteine engagement by compound; conditions: treatment time: 4 h, cell line lysate: HEK293T
Description: (§1)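 IA-DTB competitive cysteine chemoproteomics in HEK293T RIPA lysate. Lysates were treated with compound 29 or 30 at 50 or 200 µM for 4 h, then IA-DTB (500 µM, 1 h), trypsin-digested, NeutrAvidin-enriched and analysed by diaPASEF. Competition ratio = intensity DMSO / intensity compound (n=4 treated, n=64 DMSO); binding: mean log2 CR ≥ 1 and p ≤ 0.05 plus QC filters. Target is the cysteine site.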

[2] = compound: ClCC(=O)N[C@H]1CCCc2ccccc12; assay: as above; conditions: treatment time: 4 h, cell line lysate: HEK293T
Description: as §1

Row | Target | log2 mean competition ratio ([1]; 50 µM) | log2 mean competition ratio ([1]; 200 µM) | log2 mean competition ratio ([2]; 50 µM) | log2 mean competition ratio ([2]; 200 µM)
1 | CAMSAP1 C719 (UniProt Q5T5Y3) | 0.157 | 0.133 | 0.363 | 0.49
2 | CBX2 C284 (UniProt Q14781) | 0.252 | 0.208 | 0.00158 | 0.325
3 | CBWD1 C310 (UniProt Q9BRT8) | -0.124 | -0.0156 | -0.128 | -0.125
4 | C22orf39 C105 (UniProt Q6P5X5) | 0.553 | -0.0221 | 0.305 | 0.133
5 | C18orf21 C175 (UniProt Q32NC0) | -0.134 | 0.378 | -0.193 | 0.103
6 | BUD31 C78 (UniProt P41223) | -0.0699 | -0.251 | -0.0452 | -0.167
7 | C5orf22 C165 (UniProt Q49AR2) | -0.0662 | 0.241 | -0.452 | 0.352
8 | BRMS1L C61 (UniProt Q5PSV4) | -0.116 | 0.00569 | -0.197 | 0.211
9 | CAD C868 | 0.124 | 0.237 | -0.363 | -0.0704
10 | CAP1 C93 | 0.0525 | -0.151 | 0.136 | -0.195
11 | BORCS6 C176 (UniProt Q96GS4) | -0.135 | -0.132 | -0.00514 | -0.171
12 | BUB1B C767 (UniProt O60566) | -0.318 | -0.211 | -0.233 | -0.226
13 | CADPS2 C168 | 0.114 | 0.0737 | 0.0381 | -0.133
14 | BOD1L1 C74 (UniProt Q8NFC6) | 0.157 | 0.202 | 0.0135 | 0.215
15 | BUB1 C407 (UniProt O43683) | -0.131 | 0.221 | -0.0355 | 0.359
16 | CA8 C200 (UniProt P35219) | 0.24 | 0.0103 | -0.0832 | -0.337
17 | CAD C379 | 0.255 | -0.182 | 0.261 | -0.154
18 | CAPN5 C495 | -0.13 | -0.0923 | -0.135 | -0.0582
19 | BRAT1 C308 (UniProt Q6PJG6) | 0.161 | -0.108 | -0.0493 | -0.26
20 | BUB1B C775 (UniProt O60566) | 0.0725 | -0.184 | 0.243 | -0.124
21 | CASP6 C68 (UniProt P55212) | 0.0275 | 0.0602 | -0.0844 | 0.157
22 | CAMKK1 C243 (UniProt Q8N5S9) | -0.0985 | 0.0611 | -0.426 | -0.112
23 | CBS C15 (UniProt P35520) | 0.052 | -0.0212 | -0.187 | -0.11
24 | C8orf76 C248 (UniProt Q96K31) | 0.0276 | -0.176 | -0.0971 | -0.321
25 | CAMK2D C7 (UniProt Q13557) | -0.173 | 0.0407 | 0.273 | 0.216

Two records drawn at random from those above:
Row | Target | log2 mean competition ratio ([1]; 50 µM) | log2 mean competition ratio ([1]; 200 µM) | log2 mean competition ratio ([2]; 50 µM) | log2 mean competition ratio ([2]; 200 µM)
11 | BORCS6 C176 (UniProt Q96GS4) | -0.135 | -0.132 | -0.00514 | -0.171
1 | CAMSAP1 C719 (UniProt Q5T5Y3) | 0.157 | 0.133 | 0.363 | 0.49
